Drawing on publication PMC5852159, “Hydrogen peroxide positively regulates brassinosteroid signaling through oxidation of the BRASSINAZOLE-RESISTANT1 transcription factor” (Nature Communications, 2018), this text covers binding for one substance.

The target in the assay is T1, TRXh5-nYFP (Arabidopsis thaliana) (UniProt Q39241).
T1 sequence: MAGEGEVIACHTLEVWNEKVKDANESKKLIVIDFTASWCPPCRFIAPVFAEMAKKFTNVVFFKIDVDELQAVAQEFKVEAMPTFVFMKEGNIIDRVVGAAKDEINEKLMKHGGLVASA
Put plainly: split reporter; BiFC in tobacco leaves: BZR1-cYFP or BES1-cYFP co-expressed with TRX-h proteins fused to nYFP.

These are yes or no findings as the source states them, for the method shown. In cells and extracts the contact can be indirect. Binding calls can cover weak binding; strength is not graded here. Sequences can lack the tags named with a protein.

Consider BES1-cYFP (Arabidopsis thaliana), for which the binding result is reported as “binds”.
